Measurements from “University of Dundee, Small-Polar-MMV Screening Library” (2021), ChEMBL document CHEMBL3988442.

Sequences of proteins named here, by UniProt entry; tags and fusion partners are left off.
UniProt E9BF75, entry or part of it: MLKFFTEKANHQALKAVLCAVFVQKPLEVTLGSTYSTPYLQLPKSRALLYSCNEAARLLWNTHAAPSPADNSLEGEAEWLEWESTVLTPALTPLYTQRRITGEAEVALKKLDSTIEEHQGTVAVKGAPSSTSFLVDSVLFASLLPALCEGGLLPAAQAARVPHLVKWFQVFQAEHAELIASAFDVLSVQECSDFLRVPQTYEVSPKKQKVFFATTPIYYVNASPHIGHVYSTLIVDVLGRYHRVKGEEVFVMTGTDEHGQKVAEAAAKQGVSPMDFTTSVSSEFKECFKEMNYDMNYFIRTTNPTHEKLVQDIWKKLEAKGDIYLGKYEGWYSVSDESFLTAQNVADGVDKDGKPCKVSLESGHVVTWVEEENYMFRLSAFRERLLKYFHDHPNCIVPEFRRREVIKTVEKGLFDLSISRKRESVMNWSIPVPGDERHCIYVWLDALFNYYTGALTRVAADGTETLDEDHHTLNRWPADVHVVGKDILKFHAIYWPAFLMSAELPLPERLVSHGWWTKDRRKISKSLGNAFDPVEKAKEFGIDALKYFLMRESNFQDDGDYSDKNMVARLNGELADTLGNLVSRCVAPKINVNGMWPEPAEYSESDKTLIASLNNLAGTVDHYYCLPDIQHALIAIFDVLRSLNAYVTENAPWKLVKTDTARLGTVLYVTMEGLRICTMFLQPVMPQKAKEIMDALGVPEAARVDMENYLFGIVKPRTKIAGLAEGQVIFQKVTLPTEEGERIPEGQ

All values are in %. The controls that fix the scale are not given in the record; negative values are as filed. This is an unselected part of the compounds tested. A dash means the value is not listed here; it may have been measured.

Mtb heat-shock: 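Assay on Mycobacterium tuberculosis, filed only as a heat shock assay from Cornell; the read-out is not stated. The concentration is filed as 10 mM, unlikely as a test dose, so the dose is not known. The record gives no direction; compounds that gave an IC50 in retests scored well above the rest, so higher reads as stronger inhibition. Of about 69,000 compounds tested this way, about 930 (1.4%) reached 50% or more in at least one test.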
Mtb growth Cornell: 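Whole-cell assay for inhibitors of Mycobacterium tuberculosis growth, labelled Cornell in the record; the read-out is not stated. The concentration is filed as 10 mM, unlikely as a test dose, so the dose is not known. Higher means stronger inhibition (inferred from two other growth screens of the library). About 53,000 compounds were tested under these conditions; 1.7% (about 900) showed 50% or more at least once.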
LdMetRS: 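Primary screen of methionyl-tRNA synthetase; the read-out is not stated. Target: Methionyl-tRNA synthetase (putative), Leishmania donovani (UniProt E9BF75). The test concentration is not given. The values are filed as inhibition. Of about 68,000 compounds tested this way, about 24 (0.035%) reached 50% or more in at least one test.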

compound,Mtb heat-shock,Mtb growth Cornell,LdMetRS
Cn1nc(C2CCCNC2)c2c(C(=O)NC3CC3)cc(C3CC3)nc21 (stereo unspecified),-20.12,-,2.857
CC(C)OCCCN(Cc1ccncc1)Cc1cc(F)cc(F)c1.Cl,-34.54,-55.66,-
CN(C)CCO[C@H]1CN(C(=O)c2ccc3c(c2)OCO3)[C@@H]2COC[C@H]12,-,-,15.22
CC(C)NC(=O)c1nnn(-c2cccc(C(F)(F)F)c2)c1C1CC1,-1.698,3.384,11.5
COc1coc(C(=O)Nc2nc(C)cs2)cc1=O,66.21,-14.83,13.98
[H][C@]12CC[C@]([H])(CN(C(=O)c3ccccc3)C1)N(C(=O)OC(C)C)C2,9.448,11.63,-
CC(C)CCS(=O)(=O)CC(=O)N1CCCC1c1cnn(C)c1 (stereo unspecified),-30.78,-12.49,13.64
O=C(NCCc1ccccn1)N1CCOC(c2ccccc2Cl)C1 (stereo unspecified),-18.75,-0.3963,16.48
O=C(c1ccc(N2CCCC2)nn1)N1CCCc2ccc(F)cc21,-1.649,23.71,12.93
Cc1ncnc2c1CCN(Cc1ccccn1)CC2,-,-,3.5
CC(C)N1CCCC1c1cc(CO)[nH]n1.O=CO (stereo unspecified),3.14,-9.165,-
Cc1ccc(N2CCC(c3nccn3Cc3cscn3)CC2)nn1,-61.24,0.06404,15.64
COc1cccc(CN2CCCC(c3cc(C(N)=O)[nH]n3)C2)c1 (stereo unspecified),-10.41,11.65,11.85
O=C(CCCc1ccccc1)N1CCC(Nc2cccnn2)CC1,9.877,5.749,19.27
CC(c1ccco1)N(C(=O)c1cc2c([nH]c1=O)CCCC2=O)C1CC1 (stereo unspecified),-7.526,17.47,8.935
CN(C)C(=O)N1CCC2(CC1)CNc1ccc(F)cc12,-,-,10.1
O=C(Nc1cccn(Cc2ccc(F)cc2)c1=O)c1csnn1,-23.65,7.045,4.7
COCc1ncc(CN2CCC3(CCNCC3)CC2)cn1,2.837,22.04,7.062
CCN(CC)C(=O)CNC(=O)c1ccc(-c2ccsc2)nc1C,-18.45,-18.66,-3.683
Cc1cc(C)cc(C(=O)NCCS(=O)(=O)N2CCSCC2)c1,1.419,-11.45,16.63
O=C(O)CCNC(=O)C1(c2cccc(Br)c2)CCOCC1,1.331,-8.264,10.05
Cc1noc(C)c1CNC(=O)N1Cc2ccccc2N(C)CC1C (stereo unspecified),15.59,10.19,5.797
Cc1noc(C)c1S(=O)(=O)NCC(O)c1ccc2c(c1)CCO2 (stereo unspecified),-9.786,-26.48,8.869
CCc1nnc2n1CCN(C(=O)c1ccc(C(F)(F)F)nc1C)C2,10.49,20.22,9.859
CC1CCc2nn(CCNC(=O)C3CCCC3)c(=O)cc2C1 (stereo unspecified),7.743,-2.75,10.11
CCc1ccc(CN2CC[C@H]3C[C@H](c4nnc(C)[nH]4)O[C@@H]3C2)o1,-,-,13.5
Cc1cccc(CNC(CN2CCN(C)CC2)c2ccccc2)c1 (stereo unspecified),-9.551,-12.09,14.5
CNC(=O)c1ccc(C2CN(Cc3ccc(F)cc3)CCO2)nc1 (stereo unspecified),-7.934,26.2,15.43
CCC1c2cccn2CCN1C(=O)c1ccno1 (stereo unspecified),5.581,-20.81,13.88
[H][C@@]12CS(=O)(=O)C[C@]1([H])N(C(=O)c1csc(C)n1)CCN2c1ncccn1,8.842,-7.361,-
O=C(O)C(F)(F)F.[H][C@]12CCN(S(=O)(=O)c3cccs3)C[C@@]1([H])OCCN(C)C2,41.85,-23.82,-
COc1ccc(CN(Cc2cncn2C)CC2CCCO2)c(OC)c1.O=C(O)CC(O)(CC(=O)O)C(=O)O (stereo unspecified),-4.281,1.031,-
CCCc1nc(C)c(C(=O)NCc2ccc(C)n2C)s1,34.11,0.9123,8.659
Cn1cnnc1S(=O)(=O)C1CCN(S(=O)(=O)c2c(Cl)cccc2Cl)CC1,1.94,-0.2103,11.33
Cn1cc(C2(C)CN(Cc3ccc(Cl)c(F)c3)CCO2)cn1 (stereo unspecified),-0.8481,20.06,2.446
COC[C@@]12CC[C@@H](N3CCOCC3)C[C@H]1CCN(c1ccc(Cl)cn1)C2,-,-,11.54
Cc1nnsc1C(=O)NCCNS(=O)(=O)c1cccs1,7.235,-32.34,24.57
C[C@@H]1CN(CCC(=O)NCc2ccccc2Cl)CC[C@@]1(O)C1CCC1,5.102,-32.76,8.303
CCc1ccccc1CN1CC[C@@]2(O)CCN(S(=O)(=O)N(C)C)C[C@H]2C1,-,-,8.964
CCS(=O)(=O)N1CCC2(CCCC(=O)N2C)CC1,-11.79,-,9.444
O=C(c1coc(COc2cccc(F)c2)n1)N1CC[C@H](O)[C@@H](O)C1,-4.512,-,16.3
CC(=O)NCc1nc(CCOc2ccc(Cl)cc2)no1,-17.64,-3.696,9.589
O=C(O)C(F)(F)F.[H][C@@]12CCN(Cc3ccco3)C[C@]1([H])[C@@H](CNC(=O)c1ccnnc1)OC2,-10.06,17.69,-
CCSCCn1cc(-c2ncc[nH]2)nn1,-19.73,-,8.362
O=C(NCc1nn(-c2ccccc2)c2c1CCC2)NC1CCC(O)CC1 (stereo unspecified),-4.202,-,17.89
Cc1cc(C)cc(OCCN(C)C(=O)NC(C)c2nncn2C)c1 (stereo unspecified),-28.14,-24.95,12.43
Cc1cnc(N)nc1NCCSCc1[nH]cnc1C,-15.45,-,4.8
O=C(c1ccccc1-c1nc[nH]n1)N1CCOC(C(F)(F)F)C1 (stereo unspecified),6.726,-29.66,7.394

For reference, 5 entries once more:

compound	Mtb heat-shock	Mtb growth Cornell	LdMetRS
CCc1ccc(CN2CC[C@H]3C[C@H](c4nnc(C)[nH]4)O[C@@H]3C2)o1	-	-	13.5
COCc1ncc(CN2CCC3(CCNCC3)CC2)cn1	2.837	22.04	7.062
CN(C)C(=O)N1CCC2(CC1)CNc1ccc(F)cc12	-	-	10.1
Cn1cc(C2(C)CN(Cc3ccc(Cl)c(F)c3)CCO2)cn1 (stereo unspecified)	-0.8481	20.06	2.446
O=C(O)C(F)(F)F.[H][C@@]12CCN(Cc3ccco3)C[C@]1([H])[C@@H](CNC(=O)c1ccnnc1)OC2	-10.06	17.69	-